Measurements published in PMC10144566, “Pharmacokinetic Profile Evaluation of Novel Combretastatin Derivative, LASSBio-1920, as a Promising Colorectal Anticancer Agent” (Pharmaceutics, 2023).

Columns and labels:
[1] = parameters: method as in Literature (reference not given); conditions: absorbed fraction of PAMPA-GIT controls; ref Literature (reference not given); cited from earlier work
PAMPA-GIT permeability = assay type: in vitro ADME; conditions: PAMPA-GIT predicted absorbed fraction; 0–30% low, 30–69% medium, 70–100% high absorption

Q: For `CC(C)NCC(O)COc1ccc(CC(N)=O)cc1` (centres unmarked) [Atenolol], which “Fa (Literature)” value [1] is on record?
A: 21

Q: What about the Fa% (PAMPA-GIT permeability) of the same compound?
A: 8.62%
